The values that follow come from the supplement of paper PMC10849652.

Chains of the proteins cited; added tags and fusions are not shown. Lines headed by an entry give the natural chain unless they say otherwise; changes in a name come on top.
UniProt Q9HD34: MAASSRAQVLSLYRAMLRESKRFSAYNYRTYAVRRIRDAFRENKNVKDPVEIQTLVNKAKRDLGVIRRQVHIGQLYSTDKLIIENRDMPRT
UniProt O00462: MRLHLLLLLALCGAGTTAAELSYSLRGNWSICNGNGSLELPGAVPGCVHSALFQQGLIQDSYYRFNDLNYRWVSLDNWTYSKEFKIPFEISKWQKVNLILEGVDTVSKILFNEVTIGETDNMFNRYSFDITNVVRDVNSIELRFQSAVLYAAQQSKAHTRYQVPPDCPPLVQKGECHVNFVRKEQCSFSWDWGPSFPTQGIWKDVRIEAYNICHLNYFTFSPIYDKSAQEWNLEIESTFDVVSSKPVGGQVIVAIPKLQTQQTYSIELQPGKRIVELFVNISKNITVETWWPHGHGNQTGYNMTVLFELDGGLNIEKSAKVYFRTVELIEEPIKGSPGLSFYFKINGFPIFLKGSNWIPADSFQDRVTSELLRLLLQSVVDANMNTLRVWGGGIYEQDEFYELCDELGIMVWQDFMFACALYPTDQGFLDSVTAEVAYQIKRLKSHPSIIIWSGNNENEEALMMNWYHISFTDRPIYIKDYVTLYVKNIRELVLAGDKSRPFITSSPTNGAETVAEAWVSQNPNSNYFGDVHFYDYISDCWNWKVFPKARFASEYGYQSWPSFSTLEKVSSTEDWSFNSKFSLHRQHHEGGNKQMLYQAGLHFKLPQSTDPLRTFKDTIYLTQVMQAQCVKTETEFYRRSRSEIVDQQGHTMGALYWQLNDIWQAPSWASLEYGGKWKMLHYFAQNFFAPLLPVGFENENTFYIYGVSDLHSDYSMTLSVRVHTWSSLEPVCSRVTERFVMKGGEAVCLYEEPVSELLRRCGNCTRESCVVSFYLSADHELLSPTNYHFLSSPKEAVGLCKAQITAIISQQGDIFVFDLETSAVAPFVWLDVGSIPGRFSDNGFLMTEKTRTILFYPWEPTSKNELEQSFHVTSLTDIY
UniProt O60337: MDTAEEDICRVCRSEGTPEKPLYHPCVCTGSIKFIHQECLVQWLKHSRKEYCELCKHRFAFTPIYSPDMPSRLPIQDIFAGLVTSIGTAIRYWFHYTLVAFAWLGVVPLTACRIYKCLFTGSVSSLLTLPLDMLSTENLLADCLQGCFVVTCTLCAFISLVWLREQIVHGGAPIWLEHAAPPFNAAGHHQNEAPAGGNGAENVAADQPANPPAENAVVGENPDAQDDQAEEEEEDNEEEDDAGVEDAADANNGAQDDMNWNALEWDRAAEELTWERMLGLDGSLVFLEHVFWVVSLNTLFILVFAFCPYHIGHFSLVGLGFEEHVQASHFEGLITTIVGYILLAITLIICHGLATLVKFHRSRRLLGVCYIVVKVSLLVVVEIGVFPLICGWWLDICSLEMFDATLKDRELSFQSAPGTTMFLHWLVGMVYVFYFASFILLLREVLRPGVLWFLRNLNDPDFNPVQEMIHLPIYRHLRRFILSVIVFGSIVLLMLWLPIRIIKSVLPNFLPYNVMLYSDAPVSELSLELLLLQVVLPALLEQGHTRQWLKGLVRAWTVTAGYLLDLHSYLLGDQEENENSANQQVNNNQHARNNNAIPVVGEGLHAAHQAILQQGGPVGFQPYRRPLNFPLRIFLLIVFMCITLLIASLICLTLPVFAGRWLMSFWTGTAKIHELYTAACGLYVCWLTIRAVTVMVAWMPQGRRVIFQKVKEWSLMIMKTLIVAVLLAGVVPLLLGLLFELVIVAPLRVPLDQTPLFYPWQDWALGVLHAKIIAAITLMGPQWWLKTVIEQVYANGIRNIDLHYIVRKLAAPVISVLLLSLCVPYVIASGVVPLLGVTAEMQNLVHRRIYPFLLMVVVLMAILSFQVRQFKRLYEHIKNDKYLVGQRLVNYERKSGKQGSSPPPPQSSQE
UniProt Q8IWT6: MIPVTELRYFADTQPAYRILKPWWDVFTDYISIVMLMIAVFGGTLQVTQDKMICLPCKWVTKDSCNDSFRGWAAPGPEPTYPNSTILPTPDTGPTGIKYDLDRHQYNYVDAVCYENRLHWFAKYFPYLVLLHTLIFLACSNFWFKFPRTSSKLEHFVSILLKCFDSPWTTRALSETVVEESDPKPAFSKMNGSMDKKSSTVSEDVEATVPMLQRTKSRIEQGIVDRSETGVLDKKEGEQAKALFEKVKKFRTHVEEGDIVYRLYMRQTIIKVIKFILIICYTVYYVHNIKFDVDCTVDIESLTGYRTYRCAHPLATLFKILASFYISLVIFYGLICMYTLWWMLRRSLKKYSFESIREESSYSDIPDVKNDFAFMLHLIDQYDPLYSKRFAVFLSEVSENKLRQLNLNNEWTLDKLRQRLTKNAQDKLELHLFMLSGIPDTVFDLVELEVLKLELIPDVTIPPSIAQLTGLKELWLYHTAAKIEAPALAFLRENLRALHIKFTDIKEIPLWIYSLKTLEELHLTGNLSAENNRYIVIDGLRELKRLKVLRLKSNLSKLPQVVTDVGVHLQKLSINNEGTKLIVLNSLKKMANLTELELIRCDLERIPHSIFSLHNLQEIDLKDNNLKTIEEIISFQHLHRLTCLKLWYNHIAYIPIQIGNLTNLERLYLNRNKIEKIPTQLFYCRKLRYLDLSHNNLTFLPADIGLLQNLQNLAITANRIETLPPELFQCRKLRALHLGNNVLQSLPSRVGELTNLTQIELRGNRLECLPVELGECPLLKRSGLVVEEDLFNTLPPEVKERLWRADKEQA
UniProt Q9H0U3: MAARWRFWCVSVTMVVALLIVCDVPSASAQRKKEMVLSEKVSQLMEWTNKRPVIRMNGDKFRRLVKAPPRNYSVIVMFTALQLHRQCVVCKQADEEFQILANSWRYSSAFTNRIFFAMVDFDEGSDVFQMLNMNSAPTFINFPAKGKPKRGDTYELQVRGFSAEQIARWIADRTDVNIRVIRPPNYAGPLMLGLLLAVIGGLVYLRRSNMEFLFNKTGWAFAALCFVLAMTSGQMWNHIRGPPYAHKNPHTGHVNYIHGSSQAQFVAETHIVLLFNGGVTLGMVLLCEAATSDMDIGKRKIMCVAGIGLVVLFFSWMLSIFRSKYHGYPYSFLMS
UniProt P62312: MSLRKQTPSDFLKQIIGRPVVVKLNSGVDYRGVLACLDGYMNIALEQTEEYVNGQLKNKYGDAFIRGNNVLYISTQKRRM
UniProt P45985: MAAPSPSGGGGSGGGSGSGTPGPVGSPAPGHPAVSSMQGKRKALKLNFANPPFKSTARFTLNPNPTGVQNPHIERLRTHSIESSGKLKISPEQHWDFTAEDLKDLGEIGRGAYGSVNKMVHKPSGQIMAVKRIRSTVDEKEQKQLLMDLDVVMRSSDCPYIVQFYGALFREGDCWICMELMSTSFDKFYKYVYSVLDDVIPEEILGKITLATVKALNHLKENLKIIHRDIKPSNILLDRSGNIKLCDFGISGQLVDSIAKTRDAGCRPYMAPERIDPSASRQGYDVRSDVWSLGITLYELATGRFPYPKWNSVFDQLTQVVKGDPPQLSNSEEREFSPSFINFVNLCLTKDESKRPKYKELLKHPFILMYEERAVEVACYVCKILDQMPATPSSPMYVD
UniProt Q9Y608: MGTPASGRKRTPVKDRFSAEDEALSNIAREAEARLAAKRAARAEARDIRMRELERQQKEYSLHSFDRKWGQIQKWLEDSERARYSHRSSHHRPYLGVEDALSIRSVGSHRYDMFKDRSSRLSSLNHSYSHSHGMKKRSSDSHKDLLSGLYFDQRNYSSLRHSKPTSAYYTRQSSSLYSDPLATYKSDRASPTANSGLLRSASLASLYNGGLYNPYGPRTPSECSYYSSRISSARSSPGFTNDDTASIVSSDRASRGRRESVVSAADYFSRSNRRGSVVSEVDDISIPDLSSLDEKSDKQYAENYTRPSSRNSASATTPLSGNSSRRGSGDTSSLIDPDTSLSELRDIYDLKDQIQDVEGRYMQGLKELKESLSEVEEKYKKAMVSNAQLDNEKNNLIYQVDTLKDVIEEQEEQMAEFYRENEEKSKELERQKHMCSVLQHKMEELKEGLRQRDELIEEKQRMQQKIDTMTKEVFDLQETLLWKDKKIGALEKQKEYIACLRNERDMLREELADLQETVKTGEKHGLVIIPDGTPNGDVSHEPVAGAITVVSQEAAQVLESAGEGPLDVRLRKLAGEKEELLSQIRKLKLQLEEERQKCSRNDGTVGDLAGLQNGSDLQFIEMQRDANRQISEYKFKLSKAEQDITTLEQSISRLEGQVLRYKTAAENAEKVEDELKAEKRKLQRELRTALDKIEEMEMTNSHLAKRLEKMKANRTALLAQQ
UniProt Q6UWE0: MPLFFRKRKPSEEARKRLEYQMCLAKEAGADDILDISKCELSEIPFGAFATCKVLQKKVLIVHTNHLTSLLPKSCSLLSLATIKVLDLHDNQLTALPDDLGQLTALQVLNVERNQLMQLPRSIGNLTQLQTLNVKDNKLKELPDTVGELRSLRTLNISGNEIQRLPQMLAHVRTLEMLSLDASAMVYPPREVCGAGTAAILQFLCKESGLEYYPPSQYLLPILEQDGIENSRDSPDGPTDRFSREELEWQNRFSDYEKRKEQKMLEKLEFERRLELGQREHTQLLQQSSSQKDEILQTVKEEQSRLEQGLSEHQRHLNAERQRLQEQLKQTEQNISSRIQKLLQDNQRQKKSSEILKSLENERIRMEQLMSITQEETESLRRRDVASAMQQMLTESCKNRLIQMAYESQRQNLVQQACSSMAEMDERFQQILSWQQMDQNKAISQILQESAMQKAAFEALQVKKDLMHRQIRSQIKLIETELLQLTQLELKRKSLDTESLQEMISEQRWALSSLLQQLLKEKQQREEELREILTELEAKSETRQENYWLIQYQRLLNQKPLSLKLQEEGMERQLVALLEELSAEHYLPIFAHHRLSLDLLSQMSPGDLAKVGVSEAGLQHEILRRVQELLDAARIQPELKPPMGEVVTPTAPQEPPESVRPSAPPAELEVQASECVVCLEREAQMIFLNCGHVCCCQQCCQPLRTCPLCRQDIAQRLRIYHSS
UniProt Q9Y4Z0: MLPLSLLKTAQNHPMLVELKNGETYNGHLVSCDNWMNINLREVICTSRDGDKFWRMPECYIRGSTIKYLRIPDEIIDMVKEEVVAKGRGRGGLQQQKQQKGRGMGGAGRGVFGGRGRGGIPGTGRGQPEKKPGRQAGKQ
UniProt P28482, whole entry, looked up: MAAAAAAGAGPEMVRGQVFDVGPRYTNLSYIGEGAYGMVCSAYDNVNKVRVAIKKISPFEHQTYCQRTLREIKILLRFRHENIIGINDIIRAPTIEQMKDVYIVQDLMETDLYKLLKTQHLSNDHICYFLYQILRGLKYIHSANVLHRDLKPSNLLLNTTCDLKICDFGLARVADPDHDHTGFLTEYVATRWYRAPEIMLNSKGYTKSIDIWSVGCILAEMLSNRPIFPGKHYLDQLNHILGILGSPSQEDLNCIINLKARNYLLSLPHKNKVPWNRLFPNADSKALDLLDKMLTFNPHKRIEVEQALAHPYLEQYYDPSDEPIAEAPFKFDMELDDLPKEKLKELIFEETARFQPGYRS
UniProt P49641: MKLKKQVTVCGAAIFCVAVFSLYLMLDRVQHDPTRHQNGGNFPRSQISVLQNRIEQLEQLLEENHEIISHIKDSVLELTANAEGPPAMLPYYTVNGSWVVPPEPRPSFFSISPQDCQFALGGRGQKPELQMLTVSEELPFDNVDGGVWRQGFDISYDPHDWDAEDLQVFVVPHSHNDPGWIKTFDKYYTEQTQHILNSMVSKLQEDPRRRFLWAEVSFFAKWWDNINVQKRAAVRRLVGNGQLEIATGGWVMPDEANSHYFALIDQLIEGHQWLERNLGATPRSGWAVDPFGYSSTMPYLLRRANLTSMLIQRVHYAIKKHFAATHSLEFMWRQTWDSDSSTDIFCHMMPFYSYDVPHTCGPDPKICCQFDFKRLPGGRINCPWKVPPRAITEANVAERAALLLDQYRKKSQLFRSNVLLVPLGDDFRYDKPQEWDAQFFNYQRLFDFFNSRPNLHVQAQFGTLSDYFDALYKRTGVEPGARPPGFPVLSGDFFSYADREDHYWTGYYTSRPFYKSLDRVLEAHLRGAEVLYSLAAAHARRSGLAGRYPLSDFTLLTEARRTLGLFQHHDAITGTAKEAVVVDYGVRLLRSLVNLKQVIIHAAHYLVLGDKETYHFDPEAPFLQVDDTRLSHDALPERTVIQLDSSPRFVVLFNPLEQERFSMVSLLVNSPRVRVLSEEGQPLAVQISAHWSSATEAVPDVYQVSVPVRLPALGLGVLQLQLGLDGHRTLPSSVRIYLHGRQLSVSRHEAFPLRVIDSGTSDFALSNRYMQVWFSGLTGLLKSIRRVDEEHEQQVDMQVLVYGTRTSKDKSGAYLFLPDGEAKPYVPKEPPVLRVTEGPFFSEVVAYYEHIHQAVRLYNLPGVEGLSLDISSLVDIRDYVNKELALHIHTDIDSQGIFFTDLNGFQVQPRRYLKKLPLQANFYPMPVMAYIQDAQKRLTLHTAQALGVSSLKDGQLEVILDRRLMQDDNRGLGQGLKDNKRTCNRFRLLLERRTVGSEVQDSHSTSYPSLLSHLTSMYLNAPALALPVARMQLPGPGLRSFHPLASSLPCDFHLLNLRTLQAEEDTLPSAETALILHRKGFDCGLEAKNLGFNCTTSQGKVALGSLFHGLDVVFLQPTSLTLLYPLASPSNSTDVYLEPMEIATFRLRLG

The other results are listed elsewhere or left out.

Compound in the experiment: CC(C)N(C[C@H]1O[C@@H](n2cnc3c(N)ncnc32)[C@H](O)[C@@H]1O)[C@H]1C[C@@H](CCc2nc3cc(C(C)(C)C)ccc3[nH]2)C1 [pinometostat]
The experiment can be described thus: log2 fold change, soluble protein after heating vs DMSO (PISA); higher = thermal stabilisation; K562 cells, 10 uM, 30 min; active = over 0.2 and 3.5 SD of the protein, either way, in both replicates (recomputed). The gist of the method:
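K562 cells at 2×10^6 cells/mL were exposed to 10 μM compound for 30 min, then aliquots were heated for 3 min across 48°C-58°C, pooled, and extracted in PBS containing 0.5% NP-40 at 4°C. The supernatant after 21,000xg for 90 min was taken as soluble protein and measured by TMTpro 16plex LC-MS/MS with channel sums equalised. Thermal stability is reported relative to control samples, with values from duplicates. Fold changes are given on a log2 scale.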
For LYRM4 (UniProt Q9HD34), the log2 fold change is inactive: -0.051.
With MAGEB2 (UniProt O15479), the log2 fold change was inactive: 0.297.
With MAP1A isoform 2 (UniProt P78559) the figure was inactive: 0.182.
MANBA (UniProt O00462): the log2 fold change was inactive: -0.039.
The same measure for MAP7D1 (UniProt Q3KQU3): inactive: 0.37; for MAEA (UniProt Q7L5Y9): inactive: -0.005.
For MARCHF6 (UniProt O60337), the log2 fold change is inactive: 0.068.
The same measure for LRRC8A (UniProt Q8IWT6): inactive: 0.228; for MAGT1 (UniProt Q9H0U3): inactive: 0.057; for M6PR (UniProt P20645): inactive: -0.012.
With LSM6 (UniProt P62312) the figure was inactive: -0.068; with LSM2 (UniProt Q9Y333), inactive: -0.056.
For the target MACF1 (UniProt H3BQK9), the log2 fold change was inactive: 0.04.
On to LYZ (UniProt P61626), for which the log2 fold change was inactive: -0.005.
With MAP2K4 isoform 2 (UniProt P45985) the figure was inactive: -0.006; with LRRFIP2 (UniProt Q9Y608), inactive: -0.05; with MAN2C1 isoform 4 (UniProt Q9NTJ4), inactive: 0.004.
The same measure for LRSAM1 (UniProt Q6UWE0): inactive: -0.027.
With MAN2A1 (UniProt Q16706) the figure was inactive: -0.029; with LSM4 (UniProt Q9Y4Z0), inactive: -0.056.
As for MAPK1 (UniProt P28482), the log2 fold change is inactive: -0.029.
The same measure for MACO1 (UniProt Q8N5G2): inactive: 0.064; for MAN2A2 (UniProt P49641): inactive: 0.01.
